# In PubChem BioAssay AID2685 (National Center for Advancing Translational Sciences (NCATS), 2010):
# This is one part of the list. Further columns of the screen follow, without active or inactive calls. The list favours compounds with an active or inconclusive main result. The note in brackets gives the kind of curve behind each potency; many fits are weak.
# Assay: qHTS Assay for Lipid Storage Modulators in Drosophila S3 Cells;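 for cell number change: cells counted by Cell Tracker Red CMTPX staining in the red channel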
# Settings: BODIPY lipid droplet fluorescence, 18-24 h; for cell number change: measured here: cell count max response, cells fed with added oleic acid
# Method in brief: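 Drosophila S3 cells loaded with oleic acid (400 uM, as added) and compounds at several concentrations; lipid droplets imaged by 488-nm laser-scanning cytometry, 500–530 nm intensity and object ratio to cell channel. Percent activity normalized to 20 uM Triacsin C.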
# [1] = measured here: cell number channel AC50, cells fed with added oleic acid
# [2] = measured here: lipid fluorescence (Fed channel) AC50, cells fed with added oleic acid
SMILES,cell number change,AC50 [1],AC50 [2]
Cc1cc(C)nc(Nc2ncc(O)n2-c2ccc(C)c(Cl)c2)n1,78.3%,"0.731 µM [rising, partial curve]",–
Cc1nc2cc(-c3ccc(Cl)cc3)nn2c(C)c1CCC(=O)NCc1ccco1,23%,–,"29.1 µM [rising, single point]"
COc1cccc(-c2nnn(CC(=O)N3CCC(C)CC3)n2)c1,6.32%,–,"29.1 µM [rising, single point]"
CC1CCCN(C(=O)COC(=O)c2ccc[nH]c2=O)C1 (stereo unspecified),-37.8%,"0.0461 µM [falling, full curve]","3.26 µM [falling, full curve]"
COc1ccccc1NC(=O)CSc1ccc2nnc(-c3ccc(C)cc3)n2n1,-12%,–,"4.11 µM [falling, single point]"
CC(C)[C@H](NS(=O)(=O)c1ccccc1)C(=O)OCC(=O)Nc1ccccc1Sc1ccccc1,-14.2%,–,"29.1 µM [falling, single point]"
CCCN1C(=O)C(O)(C2CC(=O)CC(C)(C)O2)c2ccccc21 (stereo unspecified),-0.312%,–,–
CCOC(=O)C1=C(COc2ccccc2)NC(=O)NC1c1ccc(Br)cc1 (stereo unspecified),-24.3%,–,–
CN(Cc1ccccc1)C(=O)c1ccc(NC(=O)Cc2cccc(NC(=O)C3CCCN(C(=O)C4CCCC4)C3)c2)cc1 (stereo unspecified),-27.9%,–,"13 µM [falling, partial curve, poor fit]"
CCc1noc(C)c1C(=O)NNC(=O)c1ccccc1Cl,-14.7%,–,"0.58 µM [falling, full curve, poor fit]"
CCN(CC)CCCn1c2c(c(SCC(=O)Nc3ccccc3Cl)nc1=O)CCC2,-25%,"5.17 µM [rising, partial curve]","0.13 µM [rising, full curve, poor fit]"
CNC(=S)N1CCn2cccc2C1c1ccc(F)cc1 (stereo unspecified),19.5%,–,"4.61 µM [rising, single point]"
CCCC1OC23CCCCC2C(C#N)(C(=N)O3)C1(C#N)C#N (stereo unspecified),-10.8%,"1.46 µM [rising, partial curve]","2.59 µM [rising, partial curve]"
CC(C)(C)NS(=O)(=O)c1ccc(NS(=O)(=O)Cc2ccccc2)cc1,46.4%,"10.3 µM [rising, partial curve]",–
Cc1cc(C)n2cc(CSc3ncn[nH]3)nc2n1,-19.4%,–,–
NC(=O)C1CCN(C(=O)CCc2nc3ccccc3c(=O)[nH]2)CC1,-6.39%,"2.91 µM [rising, single point]",–
CCn1c(SCC(=O)Nc2cc(C)on2)nnc1-c1cccs1,–,"0.0731 µM [falling, full curve, poor fit]",–
CCCC(c1nnnn1C(C)(C)C)N1CCN(c2ccccc2)CC1 (stereo unspecified),13.8%,–,"2.91 µM [falling, single point]"
CCOc1cc(/C=C/c2cc(C(=O)O)c3ccccc3n2)ccc1O,-4.39%,–,"4.11 µM [rising, full curve, poor fit]"
Cc1cc(Br)ccc1OCC(=O)NNC(=O)c1cnccn1,-41%,"16.4 µM [falling, single point]","3.26 µM [rising, full curve, poor fit]"

SMILES,cell number change,AC50 [1],AC50 [2]
Cc1onc(-c2c(F)cccc2Cl)c1C(=O)NCc1ccco1,-1.19%,–,"2.91 µM [falling, single point]"
COc1ccc(/C=C(/CC(=O)NCc2ccc(Cl)cc2)c2nc3ccccc3s2)cc1,-22.9%,–,"29.1 µM [falling, single point]"
CC(C)(C)c1ccc(-c2nnc3sc(-c4ccccn4)nn23)cc1,11.1%,–,–
O=C1C2C3C=CC(C3)C2C(=O)N1CNc1ccccn1 (stereo unspecified),-11.9%,–,"0.731 µM [falling, single point]"
COc1cc(S(=O)(=O)NC(Cc2c[nH]c3ccccc23)C(=O)O)ccc1NC(C)=O (stereo unspecified),19.2%,–,"5.17 µM [falling, single point]"
CCCCn1[nH]c(-c2ccccc2)cc1=O,53.6%,"18.4 µM [rising, single point]",–
CC1CCCCC1NC(=O)C1CC=CCC1C(=O)O (stereo unspecified),-1.25%,–,–
Cc1[nH]n(C(N)=S)c(=O)c1N=Nc1ccc(S(=O)(=O)N2CCCCCC2)cc1,–,–,"3.26 µM [rising, single point]"
CCOc1ccccc1NC(=S)N1CCN(c2ccccc2F)CC1,11.9%,–,–
COc1cc2cnncc2cc1OC,20.8%,–,"32.6 µM [rising, single point]"
O=C1C(Cc2ccccc2)Nc2ncnc(N3CCc4ccccc4C3)c2N1Cc1ccc(Cl)cc1 (stereo unspecified),8.25%,"0.82 µM [rising, single point]","3.66 µM [rising, single point]"
N#CC(C#N)=Cc1cc2ccccc2nc1N1CCOCC1,-19.4%,–,"2.91 µM [rising, partial curve]"
COc1ccc(NC(=O)C2CCCN2S(=O)(=O)c2ccc3c(c2)CCC(=O)N3)cc1 (stereo unspecified),-61.2%,"29.1 µM [falling, single point]","6.51 µM [rising, single point]"
O=C(CCC(=O)c1cccs1)Nc1ccc(F)c(F)c1F,62.3%,"29.1 µM [rising, single point]","29.1 µM [rising, single point]"
O=C(Nc1ccc(Br)cc1)c1cccc(OC(=S)N2CCOCC2)c1,-21.1%,–,"6.31 µM [rising, single point]"
O=C(NCC1OCCc2ccccc21)c1ccc(NC(=O)c2cccc(Br)c2)cc1 (stereo unspecified),5.44%,–,"0.366 µM [rising, full curve, poor fit]"
CCN(CC)S(=O)(=O)c1cccc(NC(=O)C2SC(=Nc3ccc(C)cc3C)C(C(=O)NC(C)COC)=C2N)c1 (stereo unspecified),9.41%,–,–
COc1cc2c3c(c1)c(C1=NC(=S)NC1=O)c(O)n3C(C)(C)C=C2C,4.66%,–,"4.11 µM [falling, partial curve, poor fit]"
O=C(COc1ccccc1C(=O)N/N=C\c1ccc(O)c(O)c1)N/N=C/c1ccc(O)c(O)c1,-34.3%,"23.1 µM [falling, single point]",–
Cc1ccc(O)c(C(=O)c2cnn(C(=O)Cc3csc(C)n3)c2)c1,10.7%,–,"0.82 µM [rising, single point]"

# Fetched by structure from the list above:
SMILES,cell number change,AC50 [1],AC50 [2]
O=C(CCC(=O)c1cccs1)Nc1ccc(F)c(F)c1F,62.3%,"29.1 µM [rising, single point]","29.1 µM [rising, single point]"
Cc1ccc(O)c(C(=O)c2cnn(C(=O)Cc3csc(C)n3)c2)c1,10.7%,–,"0.82 µM [rising, single point]"

# (further entries)

SMILES,cell number change,AC50 [1],AC50 [2]
CCOc1ccc(NS(=O)(=O)c2ccc(C)c(C(=O)NCCCn3ccnc3)c2)cc1,–,"0.366 µM [rising, partial curve]","0.58 µM [rising, full curve]"
CCCCn1c(N)c(N(CCOC)C(=O)COC(=O)COc2ccccc2C#N)c(=O)[nH]c1=O,–,–,"29.1 µM [rising, single point]"
COc1ccc(NS(=O)(=O)c2ccc(N3CCOCC3)c(NC(=O)c3ccccc3Cl)c2)cc1,1.75%,–,"1.84 µM [falling, partial curve, poor fit]"
O=C(O)C1(P(=O)(c2ccc(Cl)cc2)c2ccc(Cl)cc2)CCCC1,2.09%,"2.31 µM [falling, partial curve]","4.61 µM [falling, partial curve]"
CN(C)S(=O)(=O)c1cccc(NC(=O)COC(=O)c2cccc(S(=O)(=O)N3CCc4ccccc4C3)c2)c1,-83.3%,"16.4 µM [falling, single point]",–
COc1ccc(C(=O)NC(=S)NCCO)cc1Br,0.697%,–,"29.1 µM [falling, single point]"
COc1ccc(CNC(=O)C2CCCN(S(=O)(=O)c3c(C)nn(C)c3C)C2)cc1 (stereo unspecified),30.2%,–,"29.1 µM [rising, single point]"
O=C(O)c1ccc(-c2ccc(/C=N/Nc3ccc([N+](=O)[O-])cc3)o2)cc1,24%,–,–
O=C(Nc1ccc(S(=O)(=O)NCc2cccnc2)cc1)c1ccccc1Cl,-15.6%,–,"29.1 µM [falling, single point]"
COc1cccc(/C=N/NC(=O)CSc2ccccc2C)c1OC,39.8%,"29.1 µM [rising, single point]","7.31 µM [rising, partial curve]"
CC(=O)Nc1ccc(NS(=O)(=O)c2ccccc2)cc1,0.679%,"0.13 µM [falling, full curve, poor fit]","0.146 µM [falling, full curve, poor fit]"
O=C(N[C@@H](Cc1ccc(Br)cc1)C(=O)O)OCC1c2ccccc2-c2ccccc21,18%,–,–
COCCOC(=O)c1sc(=S)n(CCOC)c1N,-35.3%,"32.6 µM [falling, single point]",–
O=C(/C=C/c1c(F)cccc1Cl)NCc1ccco1,13.4%,–,"16.4 µM [rising, single point]"
COc1ccc(/C=C/C(=O)c2ccc3c(c2)OCO3)cc1OC,-14.1%,–,–
C=CCn1c(C)cc(C(=O)CSc2nc3ccccc3[nH]2)c1C,-25%,–,"1.84 µM [rising, single point]"
COc1ccc(CCC(=O)OCC(=O)c2c(N)n(CC(C)C)c(=O)n(C)c2=O)cc1,-1.74%,"4.11 µM [rising, single point]","4.11 µM [falling, single point]"
O=C(CSc1nnnn1-c1cccnc1)Nc1ccc(OCc2ccccc2)cc1,-37%,"0.116 µM [falling, full curve, poor fit]","6.51 µM [falling, full curve, poor fit]"
Cc1ccc2[nH]c(=O)c(CN(CCCN3CCOCC3)C(=O)NC3CCCCC3)cc2c1,-0.0124%,–,–
